Experimental data from EP4713368A1.
These are yes or no findings as the source states them, for the method shown. Some binding calls cover weakened binding; strength is not graded here.

Chains of the proteins cited; added tags and fusions are not shown. Lines headed by an entry give the natural chain unless they say otherwise; changes in a name come on top.
UniProt P10747: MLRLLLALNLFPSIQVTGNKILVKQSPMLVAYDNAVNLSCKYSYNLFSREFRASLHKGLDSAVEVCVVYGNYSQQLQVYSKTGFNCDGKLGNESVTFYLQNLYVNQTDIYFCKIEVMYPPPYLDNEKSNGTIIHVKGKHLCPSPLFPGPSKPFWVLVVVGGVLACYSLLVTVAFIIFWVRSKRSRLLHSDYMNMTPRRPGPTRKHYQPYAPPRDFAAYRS

Target: human CD28 (human) (UniProt P10747)
Assay: affinity maturation of CD28-binding antibodies (Example 10: Discovery of Additional Antibodies that Bind to CD28)

Row | Binder | binding
1 | Ab No. 46d (antibody, V domains shown) VH: QVQLVQSGAEVKKPGSSVKVSCKASGGTFSNYAISWVRQAPGQGLEWMGGIIPISGTATYAQKFQGRVTITADESTSTAYMELSSLRSEDTAVYYCARHSSSWGTAITSDYWGQGTLVTVSS VL: QSVLTQPPSVSGAPGQRVTISCTGSGSNIGAGYDVHWYQQLPGTAPKLLIYGNTNRPSGVPDRFSGSKSGTSASLAITGLQAEDEADYYCQSNDNSLRGILFGGGTKLTVL | binds
2 | Ab No. 46e (antibody, V domains shown) VH: QVQLVQSGAEVKKPGSSVKVSCKASGGTFSSHAISWVRQAPGQGLEWMGGIIPVSGTANYAQKFQGRVTITADESTSTAYMELSSLRSEDTAVYYCARHSSSWGTAITSDYWGQGTLVTVSS VL: QSVLTQPPSVSGAPGQRVTISCTGSGSNIGAGYDVHWYQQLPGTAPKLLIYGNTNRPSGVPDRFSGSKSGTSASLAITGLQAEDEADYYCQSNDNSLRGILFGGGTKLTVL | binds
3 | Ab No. 57a (antibody, V domains shown) VH: QVQLQESGPGLVKPSETLSLTCTVSGGSINFYYWSWIRQPPGKGLEWIGSIYPPGSTNYNPSLKSRVTISVDTSKNQFSLKLSSVTAADTAVYYCARTEVGATRPREDFQHWGQGTLVTVSS VL: QSVLTQPPSVSAAPGQKVTISCSGSSSNIGNNYVSWYQQLPGTAPKLLIYDNNKRPSGIPDRFSGSKSGTSATLGITGLQTGDEADYYCGTWDISLGWVFGGGTKLTVL | binds
4 | Ab No. 57b (antibody, V domains shown) VH: QVQLQESGPGLVKPSETLSLTCTVSGGSIEPYYWSWIRQPPGKGLEWIGSIYYRGQTNYNPSLKSRVTISVDTSKNQFSLKLSSVTAADTAVYYCARTEVGATRPREDFQHWGQGTLVTVSS VL: QSVLTQPPSVSAAPGQKVTISCSGSSSNIGNNYVSWYQQLPGTAPKLLIYDNNKRPSGIPDRFSGSKSGTSATLGITGLQTGDEADYYCGTWDISLGWVFGGGTKLTVL | binds
5 | Ab No. 57c (antibody, V domains shown) VH: QVQLQESGPGLVKPSETLSLTCTVSGGSIRDYYWSWIRQPPGKGLEWIGSIYYTGRTNYNPSLKSRVTISVDTSKNQFSLKLSSVTAADTAVYYCARTEVGATRPREDFQHWGQGTLVTVSS VL: QSVLTQPPSVSAAPGQKVTISCSGSSSNIGNNYVSWYQQLPGTAPKLLIYDNNKRPSGIPDRFSGSKSGTSATLGITGLQTGDEADYYCGTWDISLGWVFGGGTKLTVL | binds
6 | Ab No. 57d (antibody, V domains shown) VH: QVQLQESGPGLVKPSETLSLTCTVSGGSIGIYYWSWIRQPPGKGLEWIGSIYYSGSTDYNPSLKSRVTISVDTSKNQFSLKLSSVTAADTAVYYCARTEVGATRPREDFQHWGQGTLVTVSS VL: QSVLTQPPSVSAAPGQKVTISCSGSSSNIGNNYVSWYQQLPGTAPKLLIYDNNKRPSGIPDRFSGSKSGTSATLGITGLQTGDEADYYCGTWDISLGWVFGGGTKLTVL | binds
7 | Ab No. 57e (antibody, V domains shown) VH: QVQLQESGPGLVKPSETLSLTCTVSGGSINNYYWSWIRQPPGKGLEWIGSIYYPASTDYNPSLKSRVTISVDTSKNQFSLKLSSVTAADTAVYYCARTEVGATRPREDFQHWGQGTLVTVSS VL: QSVLTQPPSVSAAPGQKVTISCSGSSSNIGNNYVSWYQQLPGTAPKLLIYDNNKRPSGIPDRFSGSKSGTSATLGITGLQTGDEADYYCGTWDISLGWVFGGGTKLTVL | binds
8 | Ab No. 57f (antibody, V domains shown) VH: QVQLQESGPGLVKPSETLSLTCTVSGGSISSAYWNWIRQPPGKGLEWIGSIYYPGQTNYNPSLKSRVTISVDTSKNQFSLKLSSVTAADTAVYYCARTEVGATRPREDFQHWGQGTLVTVSS VL: QSVLTQPPSVSAAPGQKVTISCSGSSSNIGNNYVSWYQQLPGTAPKLLIYDNNKRPSGIPDRFSGSKSGTSATLGITGLQTGDEADYYCGTWDISLGWVFGGGTKLTVL | binds
9 | Ab No. 61a (antibody, V domains shown) VH: EVQLLESGGGLVQPGGSLRLSCAASGFTFAHYAMSWVRQAPGKGLEWVSAISASGVETYYADSVKGRFTISRDNSKNTLYLQMNSLRAEDTAVYYCTRDSPHMATYKSYYYYGMDVWGQGTTVTVSS VL: DIVMTQSPDSLAVSLGERATINCKSSQSLLNARTGKNYLAWYQQKPGQPPKLLIYWASTRESGVPDRFSGSGSGTDFTLTISSLQAEDVAVYYCKQSYSLRTFGGGTKVEIK | binds
10 | Ab No. 61b (antibody, V domains shown) VH: EVQLLESGGGLVQPGGSLRLSCAASGFTFSNYAMSWVRQAPGKGLEWVSAISADAGSTYYADSVKGRFTISRDNSKNTLYLQMNSLRAEDTAVYYCTRDSPHMATYKSYYYYGMDVWGQGTTVTVSS VL: DIVMTQSPDSLAVSLGERATINCKSSQSLLNARTGKNYLAWYQQKPGQPPKLLIYWASTRESGVPDRFSGSGSGTDFTLTISSLQAEDVAVYYCKQSYSLRTFGGGTKVEIK | binds
11 | Ab No. 61c (antibody, V domains shown) VH: EVQLLESGGGLVQPGGSLRLSCAASGFTFTHYAMSWVRQAPGKGLEWVSAISASGEVTYYADSVKGRFTISRDNSKNTLYLQMNSLRAEDTAVYYCVRDSPHMATYKSYYYYGMDVWGQGTTVTVSS VL: DIVMTQSPDSLAVSLGERATINCKSSQSLLNARTGKNYLAWYQQKPGQPPKLLIYWASTRESGVPDRFSGSGSGTDFTLTISSLQAEDVAVYYCKQSYSLRTFGGGTKVEIK | binds
12 | Ab No. 61d (antibody, V domains shown) VH: EVQLLESGGGLVQPGGSLRLSCAASGFTFSNYAMSWVRQAPGKGLEWVSAIGGSGDETYYADSVKGRFTISRDNSKNTLYLQMNSLRAEDTAVYYCTRDSPHMATYKSYYYYGMDVWGQGTTVTVSS VL: DIVMTQSPDSLAVSLGERATINCKSSQSLLNARTGKNYLAWYQQKPGQPPKLLIYWASTRESGVPDRFSGSGSGTDFTLTISSLQAEDVAVYYCKQSYSLRTFGGGTKVEIK | binds
13 | Ab No. 61e (antibody, V domains shown) VH: EVQLLESGGGLVQPGGSLRLSCAASGFTFEHYAMSWVRQAPGKGLEWVSAISASGGSTYYADSVKGRFTISRDNSKNTLYLQMNSLRAEDTAVYYCARDSPHMATYKSYYYYGMDVWGQGTTVTVSS VL: DIVMTQSPDSLAVSLGERATINCKSSQSLLNARTGKNYLAWYQQKPGQPPKLLIYWASTRESGVPDRFSGSGSGTDFTLTISSLQAEDVAVYYCKQSYSLRTFGGGTKVEIK | binds
14 | Ab No. 68a (antibody, V domains shown) VH: EVQLVESGGGLVQPGGSLRLSCAASGFTFSSFSMNWVRQAPGKGLEWVSYIASDASTIYYADSVKGRFTISRDNAKNSLYLQMNSLRAEDTAVYYCAREVHRGWGAFDIWGQGTMVTVSS VL: DIVMTQSPDSLAVSLGERATINCKSSQSLLNARTGKNYLAWYQQKPGQPPKLLIYWASTRESGVPDRFSGSGSGTDFTLTISSLQAEDVAVYYCKQSYSLRTFGGGTKVEIK | binds
15 | Ab No. 68b (antibody, V domains shown) VH: EVQLVESGGGLVQPGGSLRLSCAASGFTFGDYSMNWVRQAPGKGLEWVSYISSSSDTIFYADSVKGRFTISRDNAKNSLYLQMNSLRAEDTAVYYCAREVHRGWGAFDIWGQGTMVTVSS VL: DIVMTQSPDSLAVSLGERATINCKSSQSLLNARTGKNYLAWYQQKPGQPPKLLIYWASTRESGVPDRFSGSGSGTDFTLTISSLQAEDVAVYYCKQSYSLRTFGGGTKVEIK | binds
16 | Ab No. 68c (antibody, V domains shown) VH: EVQLVESGGGLVQPGGSLRLSCAASGFTFVPYSMNWVRQAPGKGLEWVSYISPSADTIYYADSVKGRFTISRDNAKNSLYLQMNSLRAEDTAVYYCAREVHRGWGAFDIWGQGTMVTVSS VL: DIVMTQSPDSLAVSLGERATINCKSSQSLLNARTGKNYLAWYQQKPGQPPKLLIYWASTRESGVPDRFSGSGSGTDFTLTISSLQAEDVAVYYCKQSYSLRTFGGGTKVEIK | binds
17 | Ab No. 68d (antibody, V domains shown) VH: EVQLVESGGGLVQPGGSLRLSCAASGFTFHSYSMNWVRQAPGKGLEWVSYIDASASTISYADSVKGRFTISRDNAKNSLYLQMNSLRAEDTAVYYCAREVHRGWGAFDIWGQGTMVTVSS VL: DIVMTQSPDSLAVSLGERATINCKSSQSLLNARTGKNYLAWYQQKPGQPPKLLIYWASTRESGVPDRFSGSGSGTDFTLTISSLQAEDVAVYYCKQSYSLRTFGGGTKVEIK | binds
18 | Ab No. 68e (antibody, V domains shown) VH: EVQLVESGGGLVQPGGSLRLSCAASGFTFSDVSMNWVRQAPGKGLEWVSYISSPADTIYYADSVKGRFTISRDNAKNSLYLQMNSLRAEDTAVYYCAREVHRGWGAFDIWGQGTMVTVSS VL: DIVMTQSPDSLAVSLGERATINCKSSQSLLNARTGKNYLAWYQQKPGQPPKLLIYWASTRESGVPDRFSGSGSGTDFTLTISSLQAEDVAVYYCKQSYSLRTFGGGTKVEIK | binds
19 | Ab No. 68f (antibody, V domains shown) VH: EVQLVESGGGLVQPGGSLRLSCAASGFTFSDYSMTWVRQAPGKGLEWVSYISSSASTIYYADSVKGRFTISRDNAKNSLYLQMNSLRAEDTAVYYCAREVHRGWGAFDIWGQGTMVTVSS VL: DIVMTQSPDSLAVSLGERATINCKSSQSLLNARTGKNYLAWYQQKPGQPPKLLIYWASTRESGVPDRFSGSGSGTDFTLTISSLQAEDVAVYYCKQSYSLRTFGGGTKVEIK | binds
20 | Ab No. 70a (antibody, V domains shown) VH: EVQLLESGGGLVQPGGSLRLSCAASGFTFSDHLMSWVRQAPGKERELVSAISGSGGSTYYADSVKGRFTISRDNSKNTLYLQMNSLRAEDTAVYYCAAHASGSYYLDASRDYDADYWGQGTQVTVSS | binds
21 | Ab No. 70b (antibody, V domains shown) VH: EVQLLESGGGLVQPGGSLRLSCAASGFTFSDFLMSWVRQAPGKERELVSAISGSGGSTYYADSVKGRFTISRDNSKNTLYLQMNSLRAEDTAVYYCAAHASGSYYLDASRDYDADYWGQGTQVTVSS | binds
22 | Ab No. 70c (antibody, V domains shown) VH: EVQLLESGGGLVQPGGSLRLSCAASGFTFSDYAMSWVRQAPGKERELVSIISASGGSTYYADSVKGRFTISRDNSKNTLYLQMNSLRAEDTAVYYCAAHASGSYYLDASRDYDADYWGQGTQVTVSS | binds
23 | Ab No. 70d (antibody, V domains shown) VH: EVQLLESGGGLVQPGGSLRLSCAASGFTFSDYLMSWVRQAPGKERELVSAISGSGGSTYYADSVKGRFTISRDNSKNTLYLQMNSLRAEDTAVYYCAAHASGSYYLDASRDYDADYWGQGTQVTVSS | binds
